In patent publication US20200347131A1:
These are yes or no findings as the source states them, for the method shown. Some binding calls cover weakened binding; strength is not graded here.

T1: human LAG-3 (Uniport entry No. P18627) (human) (UniProt P18627)
T1 sequence (looked up): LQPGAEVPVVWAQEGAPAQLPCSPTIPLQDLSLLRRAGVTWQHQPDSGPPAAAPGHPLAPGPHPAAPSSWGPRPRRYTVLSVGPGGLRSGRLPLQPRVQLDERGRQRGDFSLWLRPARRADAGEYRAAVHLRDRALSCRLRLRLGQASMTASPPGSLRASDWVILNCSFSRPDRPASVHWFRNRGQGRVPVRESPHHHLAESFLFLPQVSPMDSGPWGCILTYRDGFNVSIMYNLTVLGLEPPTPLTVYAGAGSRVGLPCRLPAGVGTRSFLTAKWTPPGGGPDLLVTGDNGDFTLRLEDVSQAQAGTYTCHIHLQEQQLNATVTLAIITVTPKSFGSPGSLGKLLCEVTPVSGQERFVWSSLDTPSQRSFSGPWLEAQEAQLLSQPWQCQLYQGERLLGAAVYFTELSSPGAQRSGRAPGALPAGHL


Key:
[1] = biological target: T1, human LAG-3 (Uniport entry No. P18627) (human); assay: ELISA, LAG-3 coated at 0.1 ug/ml
[2] = biological target: human LAG-3 (His tag) (human) (UniProt P18627); assay: BLI (ForteBio Octet), LAG-3 His on Ni-NTA sensor
[3] = biological target: T1, human LAG-3 (Uniport entry No. P18627) (human); assay: indirect ELISA on plate-coated human LAG-3 (0.1 ug/ml), HRP goat anti-mouse IgG detection
[4] = biological target: human LAG-3 (His tag) (human) (UniProt P18627); assay: FACS blocking of LAG-3-His binding to A431 cells (MHC II positive), PE anti-His detection

Binder | binding [1] | binding [2] | binding [3] | binding [4]
human-mouse chimeric antibody AB12T2 (antibody, human IgG4 S228P, kappa, V domains shown) VH: DVHLQESGPDLVKPSQSLSLTCTVTGYSITSFYSWHWIRQFPGNKLEWMGCIQYSGDTDSNPSLKSRISITRDTSENQLFLHLNSVTTEDTATYYCARSPYDSDPYYVMDYWGQGTSVTVSS VL: DIVMSQSPSSLAVSVGEKITMTCKSSQSLLYSGNQKNYLAWYQQKPGQSPTLLIYWASTRDSGVPDRLTGSGSGTDFTLTISSVKAEDLAVYYCQQYYAYPYTFGGGTKLETKR |  | binds |  | 
humanized antibody AB12T4 (antibody, human IgG4 S228P, kappa, V domains shown) VH: DVQLQESGPGLVKPSQTLSLTCTVTGYSITSFYSWHWIRQFPGKGLEWMGCIQYSGDTDSNPSLKSRITITRDTSENQLFLKLSSVTAADTATYYCARSPYDSDPYYVMDYWGQGTLVTVSS VL: DIVMSQSPDSLAVSLGERITMTCKSSQSLLYSGNQKNYLAWYQQKPGQSPTLLIYWASTRDSGVPDRLTGSGSGTDFTLTISSVQAEDVAVYYCQQYYAYPYTFGQGTKLEIKR |  | binds |  | binds
humanized antibody AB12T3 (antibody, human IgG4, kappa, V domains shown) VH: DVQLQESGPGLVKPSQTLSLTCTVTGYSITSFYSWHWIRQHPGKGLEWMGCIQYSGDTDSNPSLKSRITITRDTSENQLSLKLSSVTAADTAVYYCARSPYDSDPYYVMDYWGQGTLVTVSS VL: DIVMSQSPDSLAVSLGERATITCKSSQSLLYSGNQKNYLAWYQQKPGQPPTLLIYWASTRDSGVPDRLTGSGSGTDFTLTISSLQAEDVAVYYCQQYYAYPYTFGQGTKLEIKR |  | binds |  | 

Second part, the binder after the results:

binding [1] | binding [2] | binding [3] | binding [4] | Binder
binds | binds | binds | binds | murine monoclonal antibody #27 (antibody, IgG4, V domains shown) VH: DVHLQESGPDLVKPSQSLSLTCTVTGYSITSFYSWHWIRQFPGNKLEWMGCIQYSGDTDSNPSLKSRISITRDTSENQLFLHLNSVTTEDTATYYCARSPYDSDPYYVMDYWGQGTSVTVSS VL: DIVMSQSPSSLAVSVGEKITMTCKSSQSLLYSGNQKNYLAWYQQKPGQSPTLLIYWASTRDSGVPDRLTGSGSGTDFTLTISSVKAEDLAVYYCQQYYAYPYTFGGGTKLETK
 | binds |  |  | humanized antibody AB12T6 (antibody, human IgG4, kappa, V domains shown) VH: DVQLQESGPGLVKPSQSLSLTCTVSGYSITSFYSWHWIRQHPGKGLEWMGCIQYSGDTYYNPSLKSRVTISVDTSKNQFSLKLSSVTAADTAVYYCARSPYDSDPYYVMDYWGQGTLVTVSS VL: DIVMSQSPDSLAVSLGERATITCKSSQSLLYSGNQKNYLAWYQQKPGQPPKLLIYWASTRDSGVPDRFSGSGSGTDFTLTISSLQAEDVAVYYCQQYYAYPYTFGGGTKLETKR
 | binds |  |  | humanized antibody AB12T5 (antibody, human IgG4, kappa, V domains shown) VH: QVQLQESGPGLVKPSQTLSLTCTVSGYSITSFYSWHWIRQHPGKGLEWIGCIQYSGDTDSNPSLKSRVTISVDTSKNQFSLKLSSVTAADTAVYYCARSPYDSDPYYVMDYWGQGTSVTVSS VL: DIVMTQSPDSLAVSLGERATITCKSSQSLLYSGNQKNYLAWYQQKPGQPPKLLIYWASTRDSGVPDRFSGSGSGTDFTLTISSLQAEDVAVYYCQQYYAYPYTFGGGTKLEIKR
